Data set [1] is described as follows: general procedure: Fmoc solid-phase peptide synthesis; HATU, DIPEA. Particulars: whole synthesis.
In data set [2] the test system is xenografts of A431-CCK2R cells. The experiment in a line: biodistribution in mice with CCK2R-positive xenografts. The data set is classed as in vivo, female CD1-nu mice. The conditions noted are these: 4 h p.i.; two-way ANOVA, Bonferroni. How it is done:
Procedures for biodistribution studies with ^177Lu-labeled conjugates (10 pmol, 100 µL, 0.1 µM in PBS, 0.5 MBq, 1 µg/kg) in female CD1-nu mice with xenografts of A431-CCK2R cells at 1, 4, and 24 h p.i., as well as blocking experiments at 4 h p.i. with a 6000-fold excess of minigastrin have been reported previously and were followed without modifications. Statistical analysis was performed via GraphPad Prism using two-sided analysis of variance. n = 4 animals per group.

Starred links: 1 amine or outer side, 2 acyl side, 3 side chain; linkers in the order of their positions; H or OH if unused. Non-standard residues stand in square brackets, D forms with d. Residues, ends and D or L forms follow the SMILES beside them. *: point of attachment. DOTA = O=C(O)CN1CCN(CC(=O)O)CCN(CC(=O)*)CCN(CC(=O)O)CC1; X1 = C[C@@H](C(=O)[*:2])n1cc([C@@H](CCC(=O)O)N[*:1])nn1; X2 = O=C(Cn1cc([C@H](Cc2ccc(O)cc2)N[*:1])nn1)[*:2]; Nle = CCCC[C@H](N)C(=O)O

Regarding “HELM PEPTIDE1{[O=C(O)CN1CCN(CC(=O)O)CCN(CC(=O)[*:2])CCN(CC(=O)O)CC1].[dE].[dE].[dE].[dE].[dE].[dE].A.Y.G.[CCCC[C@@H](C(=O)[*:2])n1cc([C@H](Cc2c[nH]c3ccccc23)N[*:1])nn1].D.F.[am]}$$$$V2.0 (SMILES CCCC[C@@H](C(=O)N[C@@H](CC(=O)O)C(=O)N[C@@H](Cc1ccccc1)C(N)=O)n1cc([C@H](Cc2c[nH]c3ccccc23)NC(=O)CNC(=O)[C@H](Cc2ccc(O)cc2)NC(=O)[C@H](C)NC(=O)[C@@H](CCC(=O)O)NC(=O)[C@@H](CCC(=O)O)NC(=O)[C@@H](CCC(=O)O)NC(=O)[C@@H](CCC(=O)O)NC(=O)[C@@H](CCC(=O)O)NC(=O)[C@@H](CCC(=O)O)NC(=O)CN2CCN(CC(=O)O)CCN(CC(=O)O)CCN(CC(=O)O)CC2)nn1)”, the isolated yield in data set [1] was determined as 20.9%.

In data set [1], “DOTA-(DGlu)5-DGlu-Ψ[Tz]-Ala-Tyr-Ψ[Tz]-Gly-Trp-Nle-Asp-Phe-NH2” returned an isolated yield of 11.5%.

Compound “HELM PEPTIDE1{[O=C(O)CN1CCN(CC(=O)O)CCN(CC(=O)[*:2])CCN(CC(=O)O)CC1].[dE].[dE].[dE].[dE].[dE].[dE].A.[O=C(Cn1cc([C@H](Cc2ccc(O)cc2)N[*:1])nn1)[*:2]].W.[Nle].D.F.[am]}$$$$V2.0 (SMILES CCCC[C@H](NC(=O)[C@H](Cc1c[nH]c2ccccc12)NC(=O)Cn1cc([C@H](Cc2ccc(O)cc2)NC(=O)[C@H](C)NC(=O)[C@@H](CCC(=O)O)NC(=O)[C@@H](CCC(=O)O)NC(=O)[C@@H](CCC(=O)O)NC(=O)[C@@H](CCC(=O)O)NC(=O)[C@@H](CCC(=O)O)NC(=O)[C@@H](CCC(=O)O)NC(=O)CN2CCN(CC(=O)O)CCN(CC(=O)O)CCN(CC(=O)O)CC2)nn1)C(=O)N[C@@H](CC(=O)O)C(=O)N[C@@H](Cc1ccccc1)C(N)=O)” returned an isolated yield in data set [1] of 19.6%.

For `CCCC[C@H](NC(=O)[C@H](Cc1c[nH]c2ccccc12)NC(=O)Cn1cc([C@H](Cc2ccc(O)cc2)NC(=O)[C@H](C)n2cc([C@@H](CCC(=O)O)NC(=O)[C@@H](CCC(=O)O)NC(=O)[C@@H](CCC(=O)O)NC(=O)[C@@H](CCC(=O)O)NC(=O)[C@@H](CCC(=O)O)NC(=O)[C@@H](CCC(=O)O)NC(=O)CN3CCN(CC(=O)O)CCN(CC(=O)O)CCN(CC(=O)O)CC3)nn2)nn1)C(=O)N[C@@H](CC(=O)O)C(=O)N[C@@H](Cc1ccccc1)C(N)=O` [NMG 3, DOTA-(DGlu)6 -Ψ[Tz]-Ala-Tyr-Ψ[Tz]-Gly-Trp-Nle-Asp-Phe-NH2] ({DOTA}-[dE][dE][dE][dE][dE][X1][X2]W[Nle]DF-NH2), in data set [2], the “Stomach: reduction of uptake by co-injection of excess minigastrin, Significant?” value is given as “Yes” and the “Tumor: reduction of uptake by co-injection of excess minigastrin, Significant?” value is on record as “Yes”.

These data come from PMC8199036 (Cancers, 2021).
